Reference: the supplement of paper PMC11546906
Where a name gives a salt, the structure may show the parent alone. The list shows a part of the results. Repeats in this data set agree poorly, so a single value says little.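 A screen tested FDA-approved drugs combined with one-eighth-MIC colistin against a clinical mcr-1-positive, multidrug-resistant E. coli isolate, measuring OD600 at 24 h. Controls were untreated bacteria (growth) and broth alone (blank). An OD600 under 0.2 marked a combination as active.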

system: Escherichia coli 42 (mcr-1-positive clinical isolate); assay: OD600 after 24 h growth with compound plus colistin (absorbance units (OD600)); higher = more bacterial growth (less inhibition); details: first compound 25 µM; colistin concentration 0.5 ug/mL; incubation time 24 h; 37 °C

OD600, inactive:
C[N+](C)(C)CC(=O)O [Betaine chloride] + CCC(C)CCCC(=O)N[C@@H](CCN)C(=O)N[C@H](C(=O)N[C@@H](CCN)C(=O)N[C@H]1CCNC(=O)[C@H]([C@@H](C)O)NC(=O)[C@H](CCN)NC(=O)[C@H](CCN)NC(=O)[C@H](CC(C)C)NC(=O)[C@@H](CC(C)C)NC(=O)[C@H](CCN)NC1=O)[C@@H](C)O [colistin] 0.821
CC(CN(C)C)CN1c2ccccc2CCc2ccccc21 (stereo not given) [Trimipramine maleate] + CCC(C)CCCC(=O)N[C@@H](CCN)C(=O)N[C@H](C(=O)N[C@@H](CCN)C(=O)N[C@H]1CCNC(=O)[C@H]([C@@H](C)O)NC(=O)[C@H](CCN)NC(=O)[C@H](CCN)NC(=O)[C@H](CC(C)C)NC(=O)[C@@H](CC(C)C)NC(=O)[C@H](CCN)NC1=O)[C@@H](C)O [colistin] 1.06
CC(C)(C(=O)c1cccnc1)c1cccnc1 [Metyrapone] + CCC(C)CCCC(=O)N[C@@H](CCN)C(=O)N[C@H](C(=O)N[C@@H](CCN)C(=O)N[C@H]1CCNC(=O)[C@H]([C@@H](C)O)NC(=O)[C@H](CCN)NC(=O)[C@H](CCN)NC(=O)[C@H](CC(C)C)NC(=O)[C@@H](CC(C)C)NC(=O)[C@H](CCN)NC1=O)[C@@H](C)O [colistin] 0.818
CN1CCC(=C2c3ccccc3C=Cc3ccccc32)CC1 [Cyproheptadine hydrochloride sesquihydrate] + CCC(C)CCCC(=O)N[C@@H](CCN)C(=O)N[C@H](C(=O)N[C@@H](CCN)C(=O)N[C@H]1CCNC(=O)[C@H]([C@@H](C)O)NC(=O)[C@H](CCN)NC(=O)[C@H](CCN)NC(=O)[C@H](CC(C)C)NC(=O)[C@@H](CC(C)C)NC(=O)[C@H](CCN)NC1=O)[C@@H](C)O [colistin] 1.15
CN(C)CCCN1c2ccccc2Sc2ccc(Cl)cc21 [Chlorpromazine hydrochloride] + CCC(C)CCCC(=O)N[C@@H](CCN)C(=O)N[C@H](C(=O)N[C@@H](CCN)C(=O)N[C@H]1CCNC(=O)[C@H]([C@@H](C)O)NC(=O)[C@H](CCN)NC(=O)[C@H](CCN)NC(=O)[C@H](CC(C)C)NC(=O)[C@@H](CC(C)C)NC(=O)[C@H](CCN)NC1=O)[C@@H](C)O [colistin] 0.887
CCOC(=O)C(C)(C)Oc1ccc(Cl)cc1 [Clofibrate] + CCC(C)CCCC(=O)N[C@@H](CCN)C(=O)N[C@H](C(=O)N[C@@H](CCN)C(=O)N[C@H]1CCNC(=O)[C@H]([C@@H](C)O)NC(=O)[C@H](CCN)NC(=O)[C@H](CCN)NC(=O)[C@H](CC(C)C)NC(=O)[C@@H](CC(C)C)NC(=O)[C@H](CCN)NC1=O)[C@@H](C)O [colistin] 1.06
COCCCOc1cc(C[C@@H](C[C@H](N)[C@@H](O)C[C@H](C(=O)NCC(C)(C)C(N)=O)C(C)C)C(C)C)ccc1OC [Aliskiren hemifumarate] + CCC(C)CCCC(=O)N[C@@H](CCN)C(=O)N[C@H](C(=O)N[C@@H](CCN)C(=O)N[C@H]1CCNC(=O)[C@H]([C@@H](C)O)NC(=O)[C@H](CCN)NC(=O)[C@H](CCN)NC(=O)[C@H](CC(C)C)NC(=O)[C@@H](CC(C)C)NC(=O)[C@H](CCN)NC1=O)[C@@H](C)O [colistin] 0.93
CCOc1cc(CC(=O)N[C@@H](CC(C)C)c2ccccc2N2CCCCC2)ccc1C(=O)O [Repaglinide] + CCC(C)CCCC(=O)N[C@@H](CCN)C(=O)N[C@H](C(=O)N[C@@H](CCN)C(=O)N[C@H]1CCNC(=O)[C@H]([C@@H](C)O)NC(=O)[C@H](CCN)NC(=O)[C@H](CCN)NC(=O)[C@H](CC(C)C)NC(=O)[C@@H](CC(C)C)NC(=O)[C@H](CCN)NC1=O)[C@@H](C)O [colistin] 1.07
CCOc1ccc2ccccc2c1C(=O)N[C@@H]1C(=O)N2[C@@H]1SC(C)(C)[C@@H]2C(=O)O [Nafcillin sodium monohydrate] + CCC(C)CCCC(=O)N[C@@H](CCN)C(=O)N[C@H](C(=O)N[C@@H](CCN)C(=O)N[C@H]1CCNC(=O)[C@H]([C@@H](C)O)NC(=O)[C@H](CCN)NC(=O)[C@H](CCN)NC(=O)[C@H](CC(C)C)NC(=O)[C@@H](CC(C)C)NC(=O)[C@H](CCN)NC1=O)[C@@H](C)O [colistin] 0.989
COc1ccc2[nH]c([S@@+]([O-])Cc3ncc(C)c(OC)c3C)nc2c1 [Esomeprazole Sodium] + CCC(C)CCCC(=O)N[C@@H](CCN)C(=O)N[C@H](C(=O)N[C@@H](CCN)C(=O)N[C@H]1CCNC(=O)[C@H]([C@@H](C)O)NC(=O)[C@H](CCN)NC(=O)[C@H](CCN)NC(=O)[C@H](CC(C)C)NC(=O)[C@@H](CC(C)C)NC(=O)[C@H](CCN)NC1=O)[C@@H](C)O [colistin] 1.09
C[C@@H]1C/C=C/C=C/C=C/C=C/[C@H](O[C@@H]2O[C@H](C)[C@@H](O)[C@H](N)[C@@H]2O)C[C@@H]2O[C@](O)(C[C@@H](O)C[C@H]3O[C@@H]3/C=C/C(=O)O1)C[C@H](O)[C@H]2C(=O)O [Natamycin] + CCC(C)CCCC(=O)N[C@@H](CCN)C(=O)N[C@H](C(=O)N[C@@H](CCN)C(=O)N[C@H]1CCNC(=O)[C@H]([C@@H](C)O)NC(=O)[C@H](CCN)NC(=O)[C@H](CCN)NC(=O)[C@H](CC(C)C)NC(=O)[C@@H](CC(C)C)NC(=O)[C@H](CCN)NC1=O)[C@@H](C)O [colistin] 0.967
CCS(=O)(=O)CCn1c([N+](=O)[O-])cnc1C [Tinidazole] + CCC(C)CCCC(=O)N[C@@H](CCN)C(=O)N[C@H](C(=O)N[C@@H](CCN)C(=O)N[C@H]1CCNC(=O)[C@H]([C@@H](C)O)NC(=O)[C@H](CCN)NC(=O)[C@H](CCN)NC(=O)[C@H](CC(C)C)NC(=O)[C@@H](CC(C)C)NC(=O)[C@H](CCN)NC1=O)[C@@H](C)O [colistin] 1.1
CCc1ccc(CCOc2ccc(CC3SC(=O)NC3=O)cc2)nc1 (stereo not given) [Pioglitazone] + CCC(C)CCCC(=O)N[C@@H](CCN)C(=O)N[C@H](C(=O)N[C@@H](CCN)C(=O)N[C@H]1CCNC(=O)[C@H]([C@@H](C)O)NC(=O)[C@H](CCN)NC(=O)[C@H](CCN)NC(=O)[C@H](CC(C)C)NC(=O)[C@@H](CC(C)C)NC(=O)[C@H](CCN)NC1=O)[C@@H](C)O [colistin] 1.06
Cc1cc(C#N)cc(C)c1Oc1nc(Nc2ccc(C#N)cc2)nc(N)c1Br [Etravirine] + CCC(C)CCCC(=O)N[C@@H](CCN)C(=O)N[C@H](C(=O)N[C@@H](CCN)C(=O)N[C@H]1CCNC(=O)[C@H]([C@@H](C)O)NC(=O)[C@H](CCN)NC(=O)[C@H](CCN)NC(=O)[C@H](CC(C)C)NC(=O)[C@@H](CC(C)C)NC(=O)[C@H](CCN)NC1=O)[C@@H](C)O [colistin] 1.03
O=c1[nH]c(=O)n([C@H]2C[C@H](O)[C@@H](CO)O2)cc1C(F)(F)F [Trifluridine] + CCC(C)CCCC(=O)N[C@@H](CCN)C(=O)N[C@H](C(=O)N[C@@H](CCN)C(=O)N[C@H]1CCNC(=O)[C@H]([C@@H](C)O)NC(=O)[C@H](CCN)NC(=O)[C@H](CCN)NC(=O)[C@H](CC(C)C)NC(=O)[C@@H](CC(C)C)NC(=O)[C@H](CCN)NC1=O)[C@@H](C)O [colistin] 0.769
CN(C)C(=N)NC(=N)N [Metformin] + CCC(C)CCCC(=O)N[C@@H](CCN)C(=O)N[C@H](C(=O)N[C@@H](CCN)C(=O)N[C@H]1CCNC(=O)[C@H]([C@@H](C)O)NC(=O)[C@H](CCN)NC(=O)[C@H](CCN)NC(=O)[C@H](CC(C)C)NC(=O)[C@@H](CC(C)C)NC(=O)[C@H](CCN)NC1=O)[C@@H](C)O [colistin] 1.11
COCCOC(=O)C1=C(C)NC(C)=C(C(=O)OC(C)C)C1c1cccc([N+](=O)[O-])c1 (stereo not given) [Nimodipine] + CCC(C)CCCC(=O)N[C@@H](CCN)C(=O)N[C@H](C(=O)N[C@@H](CCN)C(=O)N[C@H]1CCNC(=O)[C@H]([C@@H](C)O)NC(=O)[C@H](CCN)NC(=O)[C@H](CCN)NC(=O)[C@H](CC(C)C)NC(=O)[C@@H](CC(C)C)NC(=O)[C@H](CCN)NC1=O)[C@@H](C)O [colistin] 0.758
CN1CCC(=C2c3ccccc3CC(=O)c3sccc32)CC1 [Ketotifen fumarate] + CCC(C)CCCC(=O)N[C@@H](CCN)C(=O)N[C@H](C(=O)N[C@@H](CCN)C(=O)N[C@H]1CCNC(=O)[C@H]([C@@H](C)O)NC(=O)[C@H](CCN)NC(=O)[C@H](CCN)NC(=O)[C@H](CC(C)C)NC(=O)[C@@H](CC(C)C)NC(=O)[C@H](CCN)NC1=O)[C@@H](C)O [colistin] 0.869
CC(=O)OCC(CCn1cnc2cnc(N)nc21)COC(C)=O [Famciclovir] + CCC(C)CCCC(=O)N[C@@H](CCN)C(=O)N[C@H](C(=O)N[C@@H](CCN)C(=O)N[C@H]1CCNC(=O)[C@H]([C@@H](C)O)NC(=O)[C@H](CCN)NC(=O)[C@H](CCN)NC(=O)[C@H](CC(C)C)NC(=O)[C@@H](CC(C)C)NC(=O)[C@H](CCN)NC1=O)[C@@H](C)O [colistin] 0.927
CCCc1cc(=O)[nH]c(=S)[nH]1 [Propylthiouracil] + CCC(C)CCCC(=O)N[C@@H](CCN)C(=O)N[C@H](C(=O)N[C@@H](CCN)C(=O)N[C@H]1CCNC(=O)[C@H]([C@@H](C)O)NC(=O)[C@H](CCN)NC(=O)[C@H](CCN)NC(=O)[C@H](CC(C)C)NC(=O)[C@@H](CC(C)C)NC(=O)[C@H](CCN)NC1=O)[C@@H](C)O [colistin] 1.07

2 entries picked at random from those above, as already listed:
OD600, inactive:
C[C@@H]1C/C=C/C=C/C=C/C=C/[C@H](O[C@@H]2O[C@H](C)[C@@H](O)[C@H](N)[C@@H]2O)C[C@@H]2O[C@](O)(C[C@@H](O)C[C@H]3O[C@@H]3/C=C/C(=O)O1)C[C@H](O)[C@H]2C(=O)O [Natamycin] + CCC(C)CCCC(=O)N[C@@H](CCN)C(=O)N[C@H](C(=O)N[C@@H](CCN)C(=O)N[C@H]1CCNC(=O)[C@H]([C@@H](C)O)NC(=O)[C@H](CCN)NC(=O)[C@H](CCN)NC(=O)[C@H](CC(C)C)NC(=O)[C@@H](CC(C)C)NC(=O)[C@H](CCN)NC1=O)[C@@H](C)O [colistin] 0.967
CN(C)CCCN1c2ccccc2Sc2ccc(Cl)cc21 [Chlorpromazine hydrochloride] + CCC(C)CCCC(=O)N[C@@H](CCN)C(=O)N[C@H](C(=O)N[C@@H](CCN)C(=O)N[C@H]1CCNC(=O)[C@H]([C@@H](C)O)NC(=O)[C@H](CCN)NC(=O)[C@H](CCN)NC(=O)[C@H](CC(C)C)NC(=O)[C@@H](CC(C)C)NC(=O)[C@H](CCN)NC1=O)[C@@H](C)O [colistin] 0.887
